This is one part of the list.
Experiments:
Test in all cases: log2 fold change, soluble protein after heating vs DMSO (PISA); higher = thermal stabilisation; K562 lysate, 10 uM; active = over 0.2 and 3.5 SD of the protein, either way, in both replicates (recomputed)
[1] = compound: CS(=O)(=O)CCNCc1ccc(-c2ccc3ncnc(Nc4ccc(OCc5cccc(F)c5)c(Cl)c4)c3c2)o1 [lapatinib]
In short: (§1)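 To prepare the extract, K562 pellets were dounce-homogenised in PBS pH 7.4 with 1 mM MgCl2, giving crude material at 1 mg/mL protein. This was treated with 10 μM compound for 30 min, then heated in aliquots for 3 min over 48°C-58°C before pooling and addition of NP-40 to 0.5% at 4°C. Centrifugation at 21,000xg for 90 min left soluble protein in the supernatant, which TMTpro 16plex LC-MS/MS quantified with equalised channel sums. Results are log-two fold changes in thermal stability compared with solvent controls, from duplicates.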

By UniProt entry, the sequences of proteins in these tests, tags left out. Where a name states a change or a piece, a line headed by the entry shows the natural chain unless it says otherwise.
UniProt Q9H4G0, whole entry, looked up: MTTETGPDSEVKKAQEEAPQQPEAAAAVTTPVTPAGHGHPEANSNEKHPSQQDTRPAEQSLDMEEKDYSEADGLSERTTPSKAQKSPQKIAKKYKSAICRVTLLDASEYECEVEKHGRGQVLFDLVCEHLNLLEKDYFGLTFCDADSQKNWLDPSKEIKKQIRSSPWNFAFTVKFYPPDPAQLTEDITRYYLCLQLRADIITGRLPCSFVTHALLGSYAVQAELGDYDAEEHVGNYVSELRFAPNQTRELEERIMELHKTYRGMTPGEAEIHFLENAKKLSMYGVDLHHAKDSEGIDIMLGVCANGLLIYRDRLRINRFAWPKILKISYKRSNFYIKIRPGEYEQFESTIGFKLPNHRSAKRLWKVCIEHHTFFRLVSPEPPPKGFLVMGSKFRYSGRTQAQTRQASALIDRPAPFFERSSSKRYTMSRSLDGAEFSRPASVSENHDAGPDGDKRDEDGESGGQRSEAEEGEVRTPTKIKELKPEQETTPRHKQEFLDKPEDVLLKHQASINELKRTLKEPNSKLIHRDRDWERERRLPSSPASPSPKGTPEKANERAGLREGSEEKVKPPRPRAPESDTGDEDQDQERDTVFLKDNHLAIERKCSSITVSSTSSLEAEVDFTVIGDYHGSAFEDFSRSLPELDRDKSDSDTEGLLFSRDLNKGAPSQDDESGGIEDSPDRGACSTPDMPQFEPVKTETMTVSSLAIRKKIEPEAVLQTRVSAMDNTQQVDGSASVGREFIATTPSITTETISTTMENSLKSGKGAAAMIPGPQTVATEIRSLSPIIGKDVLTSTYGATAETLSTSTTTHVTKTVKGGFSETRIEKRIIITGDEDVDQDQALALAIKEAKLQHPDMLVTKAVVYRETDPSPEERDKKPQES
UniProt P50402: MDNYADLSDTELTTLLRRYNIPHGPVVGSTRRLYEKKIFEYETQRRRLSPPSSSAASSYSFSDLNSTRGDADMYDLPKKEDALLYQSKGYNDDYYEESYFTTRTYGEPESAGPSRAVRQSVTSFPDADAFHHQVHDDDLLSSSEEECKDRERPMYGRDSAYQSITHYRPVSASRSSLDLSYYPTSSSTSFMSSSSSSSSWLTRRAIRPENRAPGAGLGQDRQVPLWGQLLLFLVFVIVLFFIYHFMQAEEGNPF
UniProt Q14249: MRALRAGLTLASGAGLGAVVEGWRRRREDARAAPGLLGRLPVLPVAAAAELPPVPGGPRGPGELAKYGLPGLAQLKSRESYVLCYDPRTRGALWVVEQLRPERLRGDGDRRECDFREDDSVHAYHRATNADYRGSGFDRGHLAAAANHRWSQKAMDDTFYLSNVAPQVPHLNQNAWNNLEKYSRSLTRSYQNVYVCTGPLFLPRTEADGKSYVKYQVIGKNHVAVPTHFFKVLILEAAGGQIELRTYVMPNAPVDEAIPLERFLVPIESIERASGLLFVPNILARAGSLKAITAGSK
UniProt P32519: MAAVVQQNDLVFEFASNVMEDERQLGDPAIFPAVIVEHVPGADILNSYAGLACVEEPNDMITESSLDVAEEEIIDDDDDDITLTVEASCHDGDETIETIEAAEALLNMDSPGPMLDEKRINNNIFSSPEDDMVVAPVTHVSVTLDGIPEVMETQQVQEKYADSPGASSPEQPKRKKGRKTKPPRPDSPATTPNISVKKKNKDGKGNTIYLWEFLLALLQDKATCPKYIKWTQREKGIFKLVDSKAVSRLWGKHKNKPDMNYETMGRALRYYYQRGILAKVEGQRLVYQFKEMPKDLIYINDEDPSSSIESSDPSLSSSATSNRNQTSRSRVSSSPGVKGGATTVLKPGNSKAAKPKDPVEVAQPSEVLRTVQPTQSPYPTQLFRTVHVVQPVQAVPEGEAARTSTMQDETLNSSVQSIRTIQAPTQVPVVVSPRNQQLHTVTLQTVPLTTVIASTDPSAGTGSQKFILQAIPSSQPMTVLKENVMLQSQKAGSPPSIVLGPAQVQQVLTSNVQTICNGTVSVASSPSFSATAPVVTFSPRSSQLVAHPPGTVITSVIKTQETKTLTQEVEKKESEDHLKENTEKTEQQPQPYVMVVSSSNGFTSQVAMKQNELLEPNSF
UniProt P07992: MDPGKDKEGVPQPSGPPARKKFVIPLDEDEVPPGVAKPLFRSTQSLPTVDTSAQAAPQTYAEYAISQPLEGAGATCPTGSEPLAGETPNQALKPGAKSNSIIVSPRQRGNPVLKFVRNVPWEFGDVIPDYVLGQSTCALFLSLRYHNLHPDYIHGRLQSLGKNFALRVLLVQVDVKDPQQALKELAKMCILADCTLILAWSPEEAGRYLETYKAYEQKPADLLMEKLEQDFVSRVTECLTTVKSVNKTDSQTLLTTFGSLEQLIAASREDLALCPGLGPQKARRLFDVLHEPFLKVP
UniProt Q9NPA0: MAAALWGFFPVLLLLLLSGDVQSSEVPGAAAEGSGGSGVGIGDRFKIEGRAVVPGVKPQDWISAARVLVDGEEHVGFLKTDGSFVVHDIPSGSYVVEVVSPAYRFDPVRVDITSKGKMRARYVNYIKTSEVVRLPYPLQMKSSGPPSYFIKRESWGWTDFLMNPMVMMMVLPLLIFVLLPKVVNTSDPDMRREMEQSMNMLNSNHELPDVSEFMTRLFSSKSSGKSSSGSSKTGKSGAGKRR
UniProt Q2NKX8: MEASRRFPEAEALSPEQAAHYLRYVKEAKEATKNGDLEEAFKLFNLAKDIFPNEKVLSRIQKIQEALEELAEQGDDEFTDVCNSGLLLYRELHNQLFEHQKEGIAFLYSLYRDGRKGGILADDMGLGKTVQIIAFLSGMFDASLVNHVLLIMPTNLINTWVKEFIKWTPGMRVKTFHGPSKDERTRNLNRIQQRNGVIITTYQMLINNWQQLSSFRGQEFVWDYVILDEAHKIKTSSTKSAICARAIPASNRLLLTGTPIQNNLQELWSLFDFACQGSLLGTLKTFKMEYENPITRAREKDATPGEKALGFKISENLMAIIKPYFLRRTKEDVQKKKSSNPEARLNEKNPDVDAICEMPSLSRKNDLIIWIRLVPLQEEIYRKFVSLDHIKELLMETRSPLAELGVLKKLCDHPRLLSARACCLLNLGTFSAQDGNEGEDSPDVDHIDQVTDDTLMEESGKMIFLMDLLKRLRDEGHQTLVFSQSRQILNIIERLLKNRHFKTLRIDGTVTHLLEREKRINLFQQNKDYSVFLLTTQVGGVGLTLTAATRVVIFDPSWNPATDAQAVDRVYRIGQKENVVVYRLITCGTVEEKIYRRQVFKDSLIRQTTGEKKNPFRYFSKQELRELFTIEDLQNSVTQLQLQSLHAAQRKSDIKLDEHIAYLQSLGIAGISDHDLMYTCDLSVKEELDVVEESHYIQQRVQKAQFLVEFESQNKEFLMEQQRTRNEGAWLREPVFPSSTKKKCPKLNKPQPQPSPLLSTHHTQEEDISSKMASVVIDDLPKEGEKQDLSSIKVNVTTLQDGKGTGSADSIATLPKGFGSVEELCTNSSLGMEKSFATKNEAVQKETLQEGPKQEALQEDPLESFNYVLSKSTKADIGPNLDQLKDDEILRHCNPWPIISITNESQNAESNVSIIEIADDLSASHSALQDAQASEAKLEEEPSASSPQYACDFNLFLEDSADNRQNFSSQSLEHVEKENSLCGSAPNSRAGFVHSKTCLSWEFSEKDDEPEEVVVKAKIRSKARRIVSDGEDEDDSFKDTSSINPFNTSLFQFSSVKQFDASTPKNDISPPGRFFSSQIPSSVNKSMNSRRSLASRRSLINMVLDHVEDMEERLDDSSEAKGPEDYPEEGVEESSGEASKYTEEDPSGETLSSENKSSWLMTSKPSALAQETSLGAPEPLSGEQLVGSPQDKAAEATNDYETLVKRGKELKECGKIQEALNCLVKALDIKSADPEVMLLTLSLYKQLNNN

[2] = compound: CS(=O)(=O)N1CCN(Cc2cc3nc(-c4cccc5[nH]ncc45)nc(N4CCOCC4)c3s2)CC1 [pictilisib]
In short: as §1

[3] = compound: C[C@@H](Oc1cc(-c2cnn(C3CCNCC3)c2)cnc1N)c1c(Cl)ccc(F)c1Cl [crizotinib]
In short: as §1

[4] = compound: C[C@H](C1=CC=C(C=C1)C(=O)NC2=C3C=CNC3=NC=C2)N
In short: as §1

[5] = compound: C[C@H](Nc1ncnc2nc[nH]c12)c1cc2cccc(Cl)c2c(=O)n1-c1ccccc1 [duvelisib]
In short: as §1

[6] = compound: Cc1cc(Nc2cc(CN3CCOCC3)c3nc(C)c(Cc4ccc(Cl)cc4F)n3n2)n[nH]1 [gandotinib]
In short: as §1

[7] = compound: Cc1cc(Nc2cc(N3CCN(C)CC3)nc(Sc3ccc(NC(=O)C4CC4)cc3)n2)n[nH]1 [tozasertib]
In short: as §1

[8] = compound: Cc1ccc(-n2nc(C(C)(C)C)cc2NC(=O)Nc2ccc(OCCN3CCOCC3)c3ccccc23)cc1 [doramapimod]
In short: as §1

[9] = compound: Cc1ccc(NC(=O)c2ccc(CN3CC[C@H](N(C)C)C3)c(C(F)(F)F)c2)cc1Nc1nccc(-c2cncnc2)n1 [bafetinib]
In short: as §1

[10] = compound: Cc1cccc(CC(=O)N2CCc3c2ccc(-c2cn(C)c4ncnc(N)c24)c3F)n1
In short: as §1

[11] = compound: Cc1cn(-c2cc(NC(=O)c3ccc(C)c(Nc4nccc(-c5cccnc5)n4)c3)cc(C(F)(F)F)c2)cn1 [nilotinib]
In short: as §1

[12] = compound: Cc1nc(Nc2n[nH]c3c2CN(C(=O)N[C@H](CN(C)C)c2ccccc2)C3(C)C)c2sccc2n1
In short: as §1

[13] = compound: Cc1nc(Nc2ncc(C(=O)Nc3c(C)cccc3Cl)s2)cc(N2CCN(CCO)CC2)n1 [dasatinib]
In short: as §1

[14] = compound: Cc1ncc(-c2ccnc(Nc3ccc(S(C)(=O)=O)cc3)n2)n1C(C)C
In short: as §1

[15] = compound: Cn1cc(-c2ccc3c(c2)CCN3C(=O)Cc2cccc(C(F)(F)F)c2)c2c(N)ncnc21
In short: as §1

[16] = compound: Cn1cc(CNCC2CCN(c3ncc(C(=O)NO)cn3)CC2)c2ccccc21 [quisinostat]
In short: as §1

[17] = compound: Cn1cncc1[C@@](N)(c1ccc(Cl)cc1)c1ccc2c(c1)c(-c1cccc(Cl)c1)cc(=O)n2C [tipifarnib]
In short: as §1

[18] = compound: NC(=O)Nc1cc(-c2cccc(F)c2)sc1C(=O)N[C@H]1CCCNC1
In short: as §1

[19] = compound: NC(=O)c1cnc(N[C@@H]2CCCC[C@@H]2N)nc1Nc1cccc(-n2nccn2)c1
In short: as §1

[20] = compound: NC1(c2ccc(-c3nc4ccn5c(=O)[nH]nc5c4cc3-c3ccccc3)cc2)CCC1
In short: as §1

Measured: log2 fold change

EPB41L1 (UniProt Q9H4G0)
inactive: [1] 0.022 | [2] 0.023 | [3] -0.048 | [4] -0.036 | [5] -0.059 | [6] -0.021 | [7] 0.083 | [8] 0.048 | [9] -0.052 | [10] 0.032 | [11] -0.025 | [12] -0.085 | [13] 0.02 | [14] 0.018 | [15] -0.01 | [16] -0.062 | [17] 0.008 | [18] 0.127 | [19] 0.011 | [20] -0.079

EMD (UniProt P50402)
inactive: [1] 0.015 | [2] -0.043 | [3] -0.035 | [4] 0.006 | [5] -0.044 | [6] 0.021 | [7] 0.012 | [8] 0.078 | [9] -0.002 | [10] 0.034 | [11] 0.01 | [12] -0.022 | [13] -0.009 | [14] -0.007 | [15] 0.003 | [16] -0.031 | [17] 0.073 | [18] 0.052 | [19] 0.002 | [20] 0.048

ENDOG (UniProt Q14249)
inactive: [1] 0.016 | [2] -0.021 | [3] -0.036 | [4] 0.036 | [5] 0 | [6] -0.044 | [7] 0.005 | [8] -0.018 | [9] 0.015 | [10] 0.003 | [11] -0.024 | [12] -0.043 | [13] 0.007 | [14] -0.084 | [15] 0.006 | [16] 0.005 | [17] -0.066 | [18] 0.026 | [19] 0.024 | [20] 0.006

ENO1, A0A2R8YEM5
active: [4] -0.469 | [10] 0.244
inactive: [1] -0.016 | [2] -0.037 | [3] 0.017 | [5] 0 | [6] 0.185 | [7] 0.001 | [8] -0.006 | [9] 0.036 | [11] -0.021 | [12] -0.017 | [13] -0.013 | [14] 0.002 | [15] -0.021 | [16] -0.005 | [17] 0.053 | [18] -0.026 | [19] 0.002 | [20] -0.008

ELF1 (UniProt P32519)
inactive: [1] 0.016 | [2] 0.012 | [3] -0.013 | [4] 0.061 | [5] 0.003 | [6] -0.059 | [7] -0.061 | [8] 0.01 | [9] -0.01 | [10] -0.055 | [11] 0.014 | [12] 0.015 | [13] 0.005 | [14] 0.05 | [15] 0.048 | [16] -0.01 | [17] -0.012 | [18] 0.004 | [19] -0.006 | [20] -0.026

ERCC1 (UniProt P07992)
inactive: [1] -0.007 | [2] -0.002 | [3] 0.037 | [4] 0.04 | [5] 0.002 | [6] 0.044 | [7] -0.148 | [8] -0.073 | [9] -0.049 | [10] 0.043 | [11] -0.013 | [12] 0.054 | [13] -0.043 | [14] -0.044 | [15] -0.052 | [16] 0.097 | [17] -0.007 | [18] 0.021 | [19] 0.043 | [20] 0.012

EMC7 (UniProt Q9NPA0)
inactive: [1] -0.03 | [2] 0.024 | [3] 0.012 | [5] -0.041 | [6] 0.077 | [7] 0.02 | [8] 0.011 | [9] -0.031 | [10] 0.174 | [11] 0.047 | [12] -0.015 | [13] -0.022 | [14] 0.027 | [15] 0.001 | [16] -0.006 | [17] -0.014 | [18] -0.003 | [19] 0.014 | [20] -0.073
active: [4] -0.353

ERCC6L (UniProt Q2NKX8)
inactive: [1] -0.019 | [2] -0.014 | [3] -0.01 | [4] 0.024 | [5] -0.034 | [6] -0.074 | [7] -0.003 | [8] 0.01 | [9] -0.056 | [10] -0.027 | [11] 0.025 | [12] 0.021 | [13] -0.015 | [14] -0.019 | [15] 0.022 | [16] -0.051 | [17] -0.029 | [18] 0.047 | [19] 0.021 | [20] -0.023
